Here are results for 59 compounds from PubChem BioAssay AID1487 (National Center for Advancing Translational Sciences (NCATS), 2009).

Some of the results follow. Shown are side measurements of this screen, not its main read-out; they come without a call. Most of these compounds were active or inconclusive in the main read-out, so they are no random draw. The note in brackets gives the kind of curve behind each potency; many fits are weak.

As usually defined, the AC50 is the concentration at which the activity in the assay is half-maximal.

A short description of this assay: qHTS Assay for Modulators of Lamin A Splicing. The settings on record: HeLa LMNA splicing GFP/RFP minigene ratio, 48 h. The essentials: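 S3 HeLa cells stably expressing lamin A-EGFP splicing minigene plus DsRed2, 600 cells/well, 48 h compound exposure at 37C. Laser-scanning cytometry; analysed as GFP (500-530 nm)/RFP (575-640 nm) total intensity ratio; 0.5% DMSO vehicle.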
A general note: In qHTS, concentration-response curves come from the screen itself.

[1] abbreviates: measured here: RFP viability control channel.
Setting [2] is: measured here: GFP splicing reporter channel.

In the case of `COC(=O)c1ccc(-c2nc3ccccc3[nH]2)cc1`, under setting [1], the AC50 was 0.00447 µM [falling, full curve, poor fit].

Consider `Cn1c(SCC(=O)c2c(N)n(C)c(=O)n(C)c2=O)nnc1-c1ccc(F)cc1`, for which the AC50 under setting [1] was 0.112 µM [rising, full curve, poor fit].

As to `COc1ccc(/C=C2/C(=O)ON=C2c2ccccc2)cc1OC`, the AC50 under setting [2] was 7.94 µM [falling, single point] and the AC50 under setting [1] was 12.6 µM [falling, single point].

`CC(=O)c1cccc(NC(=S)NC(=O)c2cccc(C)c2)c1`: the AC50 was 11.2 µM [rising, partial curve] under setting [2] and 28.2 µM [rising, partial curve] under setting [1].

With `Cc1cc(S(=O)(=O)C(CNC(=O)COc2ccc(Cl)cc2)c2cccs2)ccc1F` (configuration not stated), the AC50 under setting [1] is 35.5 µM [rising, single point].

In the case of `COc1ccc(OC)c(CCNC(=O)C2CCN(c3nnc(-n4cccc4)s3)CC2)c1`, under setting [1], the half-maximal activity concentration (AC50) was 7.94 µM [rising, partial curve].

Regarding `CC1C(c2ccccc2)N(C)C(c2ccccc2)CC1(O)c1ccccc1` (configuration not stated), the AC50 under setting [1] was 2.82 µM [falling, partial curve, poor fit].

As to `CSc1nc2nc3c(cc2c(=O)[nH]1)C(O)Oc1ccc(C)cc1-3` (configuration not stated), under setting [2], the AC50 is 10 µM [rising, single point].

As to `Cc1ccccc1N=C/C=C1/C=C(c2ccccc2)OC(C)(C)O1`, under setting [1], the AC50 was 14.1 µM [rising, single point].

Turning to `CCOC(=O)C1=CN(C)C=C(C(=O)OCC)C1c1ccsc1`, the AC50 under setting [2] was 31.6 µM [rising, single point].

For the compound `O=C(NC(c1ccccc1)C(Cl)(Cl)Cl)c1ccccc1` (configuration not stated), the AC50 is 17.8 µM [rising, partial curve, poor fit] under setting [2] and 20 µM [rising, single point] under setting [1].

Take `O=C(CNc1ccccc1)N/N=C/c1ccc([N+](=O)[O-])o1`: the AC50 under setting [1] is 35.5 µM [falling, single point].

Consider `Fc1ccc(CNc2nc(-c3ccccc3)nc3ccccc23)cc1`, for which the half-maximal activity concentration (AC50) under setting [2] is 15.8 µM [falling, single point] and the AC50 under setting [1] was 22.4 µM [falling, single point].

Turning to `O=C(COC(=O)C1CC1)NC(=O)NCc1ccccc1`, the AC50 under setting [1] was 5.01 µM [rising, full curve, poor fit].

Turning to `CC(C)(C)OC(=O)N1CCC(c2c(C(=O)NCCN3CCC(Cc4ccccc4)CC3)cnn2-c2ccc(F)cc2)CC1`, the AC50 is, setting by setting: under setting [2], 22.4 µM [falling, partial curve]; under setting [1], 31.6 µM [falling, partial curve].

With `Cc1cccc(N2CCN(S(=O)(=O)c3cc(C(=O)Nc4ccccc4Cl)ccc3F)CC2)c1C`, the AC50 under setting [1] is 0.158 µM [rising, full curve, poor fit].

On to `CCc1c(C)nc2cc(-c3ccc(OC)c(OC)c3)nn2c1NCC1CC1`, for which, under setting [1], the AC50 was 14.1 µM [rising, single point].

Turning to `O=C(CSc1nc(C2CC2)nc2ccccc12)N1CCc2ccccc2C1`, the AC50 by setting is: under setting [2], 8.91 µM [rising, partial curve]; under setting [1], 12.6 µM [rising, partial curve].

Regarding `CNS(=O)(=O)c1ccc(NS(=O)(=O)c2ccccc2F)cc1`, the AC50 under setting [2] was 0.112 µM [rising, full curve, poor fit].

For `COc1ccc(C2=NN(C(=O)CSc3ncccn3)C(c3ccc(C)cc3)C2)cc1` (configuration not stated), the AC50 under setting [1] is 15.8 µM [rising, single point].

Take `COc1cccc(Nc2nnc(SCc3cc([N+](=O)[O-])cc4c3OCOC4)s2)c1`: the AC50 under setting [1] was 7.08 µM [rising, partial curve].

As for `COCCCNC(=O)c1ccc(NC(=O)c2nsc3ccccc23)cc1`, under setting [2], the half-maximal activity concentration (AC50) is 0.316 µM [rising, single point].

As to `CC1CCN(C(=S)c2ccc(-c3ccc(Cl)cc3Cl)o2)CC1`, the AC50 under setting [1] was 10 µM [rising, partial curve].

`CS(=O)(=O)c1ccc(-c2nnc(NC(=O)c3ccc4c(c3)OCCO4)o2)cc1`: the AC50 under setting [2] was 35.5 µM [falling, single point] and the AC50 under setting [1] is 14.1 µM [falling, partial curve, poor fit].

As for `CCOC(=O)CSC1=C(C#N)C(c2ccc(C)o2)CC(=O)N1` (configuration not stated), under setting [1], the AC50 is 0.794 µM [rising, full curve].

In the case of `Oc1ccc(NC(=S)Nc2ccccc2)cc1`, the AC50 under setting [1] is 22.4 µM [rising, single point].

Consider `C/C(=N\NC(=O)c1ccc(CN2CCOCC2)cc1)c1cccc([N+](=O)[O-])c1`, for which the AC50 under setting [1] is 1.12 µM [rising, partial curve, poor fit].

With `CCOC(=O)CNC(=O)c1cc(-c2ccccn2)nc2c(C)c(Cl)ccc12`, under setting [1], the AC50 is 0.01 µM [rising, full curve, poor fit].

As to `CCC1CN(C(=O)N2CCC(C(=O)NCCN(CC)CC)CC2)c2cc(C)ccc2O1` (configuration not stated), the AC50 under setting [1] was 8.91 µM [rising, partial curve].

On to `CCOc1cc(CNC(=O)c2sc3ncnc(N(C)C4CCCCC4)c3c2C)ccc1OC`, for which the AC50 under setting [2] was 35.5 µM [falling, single point].

`Cc1cc(C(=O)N2CCc3ccccc32)c2ccccc2n1`: the concentration at half-maximal activity (AC50) runs as follows: under setting [2], 22.4 µM [rising, partial curve, poor fit]; under setting [1], 14.1 µM [rising, partial curve, poor fit].

For `O=C1CC(c2cc(Br)ccc2F)c2cc3c(cc2N1)CCC3` (configuration not stated), the AC50 was 5.01 µM [falling, full curve] under setting [2] and 4.47 µM [falling, full curve] under setting [1].

As to `COc1ccc(-c2nc(C)c(CCNC(=O)C(=O)Nc3ccccc3OC)s2)cc1`, the half-maximal activity concentration (AC50) under setting [2] is 44.7 µM [falling, partial curve, poor fit].

Regarding `Cc1ccc(C(C)C)c(OCC(=O)NCC2(N(C)C)CCCCC2)c1`, under setting [2], the concentration at half-maximal activity (AC50) is 0.0178 µM [rising, full curve, poor fit].

Regarding `COc1ccc(S(=O)(=O)Nc2ccc3c(c2)N(C(C)=O)CCC3)cc1F`, the concentration at half-maximal activity (AC50) by setting is: under setting [2], 0.00447 µM [rising, full curve, poor fit]; under setting [1], 12.6 µM [rising, partial curve, poor fit].

Consider `COc1ccc(OC)c2sc(N3CCN(C(=O)C(C)(C)C)CC3)nc12`, for which the AC50 under setting [2] is 0.355 µM [falling, partial curve, poor fit].

For `Clc1ccc(Sc2cc(Cl)c(-c3ccccc3)nn2)cc1`, the AC50 under setting [1] is 22.4 µM [falling, single point].

As for `COc1ccc2c(c1)Cc1sc(NC(=O)c3cccs3)nc1-2`, under setting [1], the AC50 was 11.2 µM [rising, partial curve].

On to `Cc1cccc(-c2nc(CSCC(=O)N3CCN(Cc4ccc5c(c4)OCO5)CC3)c(C)o2)c1`, for which the AC50 under setting [1] is 10 µM [rising, partial curve].

On to `Cc1cccc(Oc2nc3c(C)cccn3c(=O)c2/C=C(\C#N)c2nc3ccccc3[nH]2)c1`, for which the AC50 under setting [1] is 0.0282 µM [falling, full curve].

On to `Cc1cccc(C(=O)N[C@H](C(=O)Nc2nc(C)cs2)C(C)C)c1`, for which the concentration at half-maximal activity (AC50) under setting [1] was 20 µM [rising, single point].

Take `CC(=O)c1c(OC(=O)c2ccccc2Br)ccc2c(C)cc(=O)oc12`: the AC50 under setting [1] is 35.5 µM [rising, single point].

As to `O=c1c2cc3ccccc3n2cnn1Cc1ccccc1F`, under setting [1], the half-maximal activity concentration (AC50) was 10 µM [falling, partial curve, poor fit].

On to `COCCn1c(SCC(=O)c2ccc3c(c2)OCCO3)nnc1-c1ccoc1C`, for which the AC50 reads like this: under setting [2], 12.6 µM [rising, single point]; under setting [1], 15.8 µM [rising, single point].

On to `Cc1cc(C)c2nc(-c3ccccn3)cc(C(=O)NCc3ccc(S(N)(=O)=O)cc3)c2c1`, for which the AC50 under setting [1] was 31.6 µM [rising, single point].

With `Cc1cc(Nc2ccc3c(c2)OCCO3)c2cc(Cl)ccc2n1`, the half-maximal activity concentration (AC50) under setting [1] was 11.2 µM [rising, single point].

For the compound `O=C(Cn1cc(S(=O)(=O)Cc2ccccc2)c2ccccc21)Nc1ccccc1`, the concentration at half-maximal activity (AC50) under setting [1] was 15.8 µM [rising, single point].

Consider `Cc1nn(C)c(Cl)c1/C=N/OC(=O)c1ccc(F)cc1`, for which the AC50 under setting [2] is 1.26 µM [falling, full curve, poor fit].

On to `CCNC(=S)N/N=C/c1ccccc1[N+](=O)[O-]`, for which the AC50 under setting [1] is 5.01 µM [rising, partial curve].

For the compound `Cc1ccc2[nH]c(-c3cccc(F)c3)cc(=O)c2c1`, the AC50 is 28.2 µM [rising, single point] under setting [2] and 2.82 µM [rising, partial curve] under setting [1].

`COc1ccc(CN(C)Cc2nc(Cc3cccc(F)c3)no2)c2cccnc12`: the AC50 under setting [2] was 0.0891 µM [falling, full curve, poor fit].

As for `CCOC(=O)COc1cccc2c(=O)n(CC(=O)NCc3ccc4c(c3)OCO4)ccc12`, under setting [1], the AC50 was 3.98 µM [rising, full curve].

In the case of `O=[N+]([O-])c1ccc(Sc2ccc(Cl)c(Cl)c2)nc1`, the AC50 by setting is: under setting [2], 22.4 µM [falling, single point]; under setting [1], 35.5 µM [falling, single point].

Regarding `O=C(c1ccc2ccccc2c1)N1CCN(c2ccc(C(F)(F)F)cn2)CC1`, the AC50 under setting [1] is 15.8 µM [rising, single point].

Take `CCOc1cc(CNC(=O)C2COc3ccccc3C2)cc(OCC)c1OCC` (configuration not stated): the half-maximal activity concentration (AC50) under setting [2] is 35.5 µM [falling, single point].

`O=C1NC(=Nc2ccc(Cl)cc2)/C(=C/c2ccco2)S1`: under setting [2], the AC50 was 17.8 µM [rising, single point].

For the compound `CN(C)S(=O)(=O)c1ccc(C(=O)Nc2nnc(-c3ccc4c(c3)CCCC4)o2)cc1`, the AC50 under setting [1] is 3.16 µM [rising, full curve].

`Cc1ccc(C)c(N2CCN(CCCNC(=O)c3cnn(-c4ccccc4Cl)c3C3CCN(C(=O)OC(C)(C)C)CC3)CC2)c1`: under setting [1], the half-maximal activity concentration (AC50) was 15.8 µM [falling, single point].

Regarding `CC1CCCCC1NC(=O)COC(=O)/C=C/c1ccc2c(c1)OCO2` (configuration not stated), the AC50 under setting [2] is 0.0501 µM [falling, full curve, poor fit].
